Results from the supplement of paper PMC10735217.
Counter-ions that a name gives are not always drawn. Some of the results follow. This data set is noisy: repeats of one test often differ as much as different tests do.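 In a drug-repurposing library screen, luminescence reads luciferase driven by eight TEAD-binding elements, stably integrated into human kidney-derived cells. Compounds scoring over five robust Z scores above the plate mean are called hits.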

Test system: HEK293A TEAD-LUC reporter
Experiment: TEAD-luciferase reporter activity (YAP activation), robust Z score vs plate; higher = stronger YAP/TEAD activation
Conditions: 24 h

SMILES | TEAD-luciferase reporter activity (compound concentration: 200 nM) | TEAD-luciferase reporter activity (compound concentration: 2 uM) | TEAD-luciferase reporter activity (compound concentration: 10 uM)
COc1ccc(NC(=O)[C@H](CCCCN)NC(=O)c2cc(NC(=O)[C@H](CCCCN)NC(=O)c3cc(NC(=O)[C@H](CCCCN)NC(=O)c4cc(NC(=O)[C@@H](N)CCCCN)ccc4OC)ccc3OC)ccc2OC)cc1C(N)=O [delparantag] | inactive: -0.236 | inactive: -1.17 | inactive: 4.38
CC(=O)NC[C@H]1CN(c2ccc(N(C)S(C)(=O)=O)c(F)c2)C(=O)O1 | inactive: -1.56 | inactive: -1.03 | inactive: 0.202
CC(=O)OCC(=O)NCCCOc1cccc(CN2CCCCC2)c1 [roxatidine acetate HCl] |  | inactive: -0.296 | 
CC(=O)OCC(=O)NCCCOc1cccc(CN2CCCCC2)c1 [roxatidine acetate??hydrochloride] | inactive: 0.459 |  | inactive: -0.363
CC(=O)N[C@@H]1C[C@H](NC(C)(C)C)CC[C@@H]1N1CC[C@H](Nc2ncnc3cc(C(C)(C)C)nn23)C1=O | inactive: 0.732 | inactive: -0.503 | inactive: -0.285
CC(C[N+](C)(C)C)OC(N)=O (configuration not stated) [Urecholine] | inactive: -0.281 |  | inactive: -1.08
CC(C[N+](C)(C)C)OC(N)=O (configuration not stated) [Bethanechol chloride] |  | inactive: -0.83 | 
NC(=O)C1(N2CCCCC2)CCN(CCCC(=O)c2ccc(F)cc2)CC1 [Pipamperone] | inactive: 0.411 | inactive: -0.442 | inactive: -1.87
C=CCN1CCc2cc(O)c(O)cc2C(c2ccccc2)C1 (configuration not stated) | inactive: -2.82 | inactive: -1.09 | inactive: 3.59
COc1cccc(N(CC(=O)N(C)c2ccccc2)C(=O)CNC(=O)Nc2cccc(C(C)C(=O)O)c2)c1 (configuration not stated) | inactive: -0.799 | inactive: 2.33 | inactive: -1.24
COc1cc(S(C)(=O)=O)ccc1Nc1nc2ccc(-c3ccc(NC(=O)[C@H](C)c4ccc(F)cc4)cc3)cn2n1 | inactive: 0.306 | inactive: -1.09 | inactive: 0.554
C/C(O)=C/C(C)=N\CC/N=C(C)/C=C(\C)O | inactive: -0.565 |  | inactive: -1.16
C/C(O)=C/C(C)=N\CC/N=C(C)/C=C(\C)O [ligand of CTC-96] |  | inactive: 1.98 | 
Nc1ccn([C@@H]2CS[C@H](CO)O2)c(=O)n1 [lamivudine] |  | inactive: -0.728 | 
Nc1ccn([C@@H]2CS[C@H](CO)O2)c(=O)n1 | inactive: -1.3 |  | inactive: -0.447
CC(C)c1cc(-c2ccc(F)c3ccccc23)nc(N)n1 | inactive: 4.42 | inactive: -0.763 | inactive: -2.05
Nc1nc(OCc2cc(Br)cs2)c2nc[nH]c2n1 [Lomeguatrib] | inactive: -2.49 | inactive: 0.138 | inactive: 1.34
CCCCOC(=O)CS(=O)c1nc2cccnc2s1 (configuration not stated) | inactive: 0.947 | inactive: -1.6 | inactive: 0.0309
CCOc1ccccc1-c1nc(-c2ccccc2)c(-c2ccccc2)[nH]1 | inactive: 0.0748 | inactive: 0.0329 | active: 5.06
O=C([O-])CC([S][Au])C(=O)[O-] (configuration not stated) [Aurothiomalate disodium] | inactive: -1.16 | inactive: -1.64 | inactive: 0.161
C/C=C1\C(=O)C[C@H]2[C@@H]3CCC4=CC(=O)CCC4(C)[C@H]3CCC12C (some centres not stated) [(Z)-Guggulsterone] | inactive: 0.228 | inactive: 1.6 | inactive: 0.227
Nc1nc(O)c2nc(CNc3ccc(C(=O)N[C@@H](CCC(=O)O)C(=O)O)cc3)cnc2n1 | inactive: -1.26 |  | inactive: -2.07
Nc1nc(O)c2nc(CNc3ccc(C(=O)N[C@@H](CCC(=O)O)C(=O)O)cc3)cnc2n1 [Folic acid] |  | inactive: 0.496 | 
Nc1ccn([C@@H]2O[C@H](COP(=O)(O)O)[C@@H](O)[C@H]2O)c(=O)n1 | inactive: -0.564 |  | inactive: 2.1
Cn1cnc2c(NC3C[C@@H]4CC[C@H]3C4)ncnc21 (some centres not stated) | inactive: -0.106 | inactive: -0.351 | inactive: 0.355
O=C1c2ccccc2CN1C1CCN(CC2CC2)CC1 | inactive: 0.161 |  | inactive: 3.87

At a glance, part of the list above:
SMILES | TEAD-luciferase reporter activity (compound concentration: 200 nM) | TEAD-luciferase reporter activity (compound concentration: 2 uM) | TEAD-luciferase reporter activity (compound concentration: 10 uM)
COc1ccc(NC(=O)[C@H](CCCCN)NC(=O)c2cc(NC(=O)[C@H](CCCCN)NC(=O)c3cc(NC(=O)[C@H](CCCCN)NC(=O)c4cc(NC(=O)[C@@H](N)CCCCN)ccc4OC)ccc3OC)ccc2OC)cc1C(N)=O [delparantag] | inactive: -0.236 | inactive: -1.17 | inactive: 4.38
CC(=O)NC[C@H]1CN(c2ccc(N(C)S(C)(=O)=O)c(F)c2)C(=O)O1 | inactive: -1.56 | inactive: -1.03 | inactive: 0.202

Going on with the list:

SMILES | TEAD-luciferase reporter activity (compound concentration: 200 nM) | TEAD-luciferase reporter activity (compound concentration: 2 uM) | TEAD-luciferase reporter activity (compound concentration: 10 uM)
Cc1ncc([N+](=O)[O-])n1CCOC(=O)c1ccccc1 [Benzoyl Metronidazole] | inactive: 1 | inactive: -1.25 | inactive: -0.546
Cc1nsc(-c2nnc3n2CCN(C(=O)c2ccc(F)cc2)[C@@H]3C)n1 | inactive: -1.45 | inactive: 0.0407 | inactive: 1.56
CSCCOC(=O)C1=C(C)NC(C)=C(C(=O)OCCSC)C1c1ccccc1[N+](=O)[O-] | inactive: 0.255 | inactive: -0.215 | inactive: 1.15
Nc1cccc(CN2C(=O)N(Cc3cccc(N)c3)[C@H](Cc3ccccc3)[C@H](O)[C@@H](O)[C@H]2Cc2ccccc2)c1 | inactive: -0.476 | inactive: -0.504 | inactive: 3.45
CC(C)=CCC/C(C)=C/CC/C(C)=C/CC[C@]1(C)CCc2cc(O)cc(C)c2O1 [delta-Tocotrienol] | inactive: 0.605 | inactive: -0.808 | inactive: -0.457
Cn1cc(-c2cc3c(N4CCN(c5ncc(C(C)(O)c6ccc(F)cc6)cn5)CC4)ncnn3c2)cn1 (configuration not stated) [analog of BLU-285] | inactive: -1.51 | inactive: -1.39 | inactive: -0.985
Cc1cccc(C)c1NC(=O)NC1=CCCN1C [Xilobam] | inactive: -1.12 | inactive: -0.321 | inactive: 0.441
CC(=O)OCC(=O)[C@@]1(O)CC[C@H]2[C@@H]3CCC4=CC(=O)CC[C@]4(C)[C@H]3C(=O)C[C@@]21C | inactive: 0.312 |  | inactive: 0.955
CC(=O)OCC(=O)[C@@]1(O)CC[C@H]2[C@@H]3CCC4=CC(=O)CC[C@]4(C)[C@H]3C(=O)C[C@@]21C [Cortisone acetate] |  | inactive: 0.367 | 
CCCCCCCCCCNCCN[C@@]1(C)C[C@H](O[C@H]2[C@H](Oc3c4cc5cc3Oc3ccc(cc3Cl)[C@@H](O)[C@@H](NC(=O)[C@@H](CC(C)C)NC)C(=O)N[C@@H](CC(N)=O)C(=O)N[C@H]5C(=O)N[C@H]3C(=O)N[C@H](C(=O)N[C@H](C(=O)O)c5cc(O)c(CNCP(=O)(O)O)c(O)c5-c5cc3ccc5O)[C@H](O)c3ccc(c(Cl)c3)O4)O[C@H](CO)[C@@H](O)[C@@H]2O)O[C@@H](C)[C@H]1O [Telavancin HCl] | inactive: -1.09 |  | inactive: 0.323
CCOC(=O)Cc1csc(NC(=O)c2cn(C)c3ccccc23)n1 | inactive: -0.263 | inactive: 0.424 | inactive: 1.38
C/C=C(\C)C(=O)OC1CC2C(CC=C3CC(OC4CC(OC)C(OC5CC(OC)C(OC6CC(OC)C(OC7CC(OC)C(OC8CC(OC)C(OC9OC(CO)C(O)C(O)C9O)C(C)O8)C(C)O7)C(C)O6)C(C)O5)C(C)O4)CCC32C)C2(O)CCC(C(C)=O)C12C (configuration not stated) | inactive: -0.642 | inactive: 2.37 | inactive: 0.415
O=C(O)c1ccccc1Nc1cccc(OCc2ccc3ccccc3n2)c1 | inactive: -1.3 | inactive: -0.897 | active: 5.78
COc1cccc(C(=O)N[C@@H]2C[C@H]3CC[C@@H](C2)N3Cc2ccccc2)c1OC [Tropapride] | inactive: -1.06 | inactive: -1.61 | inactive: -0.605
CC(CN1C(=O)c2cccnc2Nc2ccccc21)N(C)C (configuration not stated) | inactive: -0.382 | inactive: -0.91 | inactive: -1.16
CCCCOc1ccc(S(=O)(=O)N2CC3(C[C@@H]2C(=O)NO)OCCCO3)cc1 | inactive: -0.742 | inactive: -0.801 | inactive: 0.00629
CCCCOC(=O)NS(=O)(=O)c1ccc(CCC)cc1-c1ccc(Cn2c(CC)nc3c(C)cc(C)nc32)cc1 | active: 5.16 | inactive: 1.13 | inactive: 1.4
CNCCC(Oc1ccccc1SC)c1ccccc1 (configuration not stated) | inactive: -0.269 | inactive: 0.224 | inactive: -0.317
NS(=O)(=O)c1cncc(-c2nc(NCc3ccccn3)c3c(-c4ccccc4)cccc3n2)c1 | inactive: 1.53 | inactive: 0.358 | inactive: 1.85
COc1ccc(Cl)cc1C(=O)NCCc1ccc(S(=O)(=O)NC(=O)NC2CCCCC2)cc1 [glyburide] |  | inactive: 0.847 | 
COc1ccc(Cl)cc1C(=O)NCCc1ccc(S(=O)(=O)NC(=O)NC2CCCCC2)cc1 | inactive: 0.299 |  | inactive: 1.74
Oc1ccc(C2=Cc3ccc(O)cc3OC2)cc1 [Idronoxil] | inactive: -0.693 | inactive: -0.16 | inactive: 0.158
O=c1oc2ccccc2c(O)c1Cc1c(O)c2ccccc2oc1=O [Dicoumarol] | inactive: -2.15 | inactive: -0.257 | inactive: -0.526
CONC(=O)c1ccc(C)c(Nc2ncnn3cc(C(=O)NCc4ccccn4)c(C)c23)c1 | inactive: -1.39 | inactive: -1.23 | inactive: -0.624
Cn1c(=O)cc(N2CCC[C@@H](N)C2)n(Cc2cc(F)ccc2C#N)c1=O [Trelagliptin succinate] | inactive: -0.424 | inactive: -0.878 | inactive: -2.77
Cc1oc(-c2ccccc2)nc1CCC(=O)c1ccc(CC2SC(=O)NC2=O)cc1 (configuration not stated) [Darglitazone] | inactive: -0.776 | inactive: 1.38 | inactive: 0.546
